{"sequences": {"note": "Chains of the proteins cited; added tags and fusions are not shown. Residues count along the entry.", "UniProt P04756, residues 317-428": "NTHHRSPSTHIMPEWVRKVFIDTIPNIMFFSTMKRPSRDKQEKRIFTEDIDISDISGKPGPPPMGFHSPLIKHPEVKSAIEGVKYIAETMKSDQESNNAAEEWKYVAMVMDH"}, "source": "paper doi:10.1101/2024.05.23.595491", "about": "(bioRxiv, 2024)", "molecules": {"B1": {"name": "SH3BP2-FLAG (full-length) (protein, UniProt Q06649 1-559)", "chain": "MAAEEMQWPVPMKAIGAQNLLTMPGGVAKAGYLHKKGGTQLQLLKWPLRFVIIHKRCIYYFKSSTSASPQGAFSLSGYNRVMRAAEETTSNNVFPFKIIHISKKHRTWFFSASSEDERKSWMAFVRREIGHFHEKKELPLDTSDSSSDTDSFYGAVERPIDISLSSYPMDNEDYEHEDEDDSYLEPDSPGPMKLEDALTYPPAYPPPPVPVPRKPAFSDLPRAHSFTSKSPSPLLPPPPPKRGLPDTGSAPEDAKDALGLRRVEPGLRVPATPRRMSDPPMSNVPTVPNLRKHPCFRDSVNPGLEPWTPGHGTSSVSSSTTMAVATSRNCDKLKSFHLSSRGPPTSEPPPVPANKPKFLKIAEEPSPREAAKFAPVPPVAPRPPVQKMPMPEATVRPAVLPRPENTPLPHLQRSPPDGQSFRGFSFEKARQPSQADTGEEDSDEDYEKVPLPNSVFVNTTESCEVERLFKATDPRGEPQDGLYCIRNSSTKSGKVLVVWDESSNKVRNYRIFEKDSKFYLEGEVLFASVGSMVEHYHTHVLPSHQSLLLRHPYGYAGPR"}, "B2": {"name": "cytAChRγ-GFP (domain or fragment, UniProt P04760 330-476)", "chain": "SLRSPHTHSMARGVRKLFLRLLPQLLRMHVRPLAPAAVQDARFRLQNGSSSGWPIMAREEGDLCLPRSELLFRQRQRNGLVQAVLEKLENGPEVRQSQEFCGSLKQASPAIQACVDACNLMARARRQQSHFDSGNEEWLLVGRVLDR"}, "B3": {"name": "SH2 domain of SH3BP2 fused to FLAG (domain or fragment, UniProt Q06649 455-553)", "chain": "VFVNTTESCEVERLFKATDPRGEPQDGLYCIRNSSTKSGKVLVVWDESSNKVRNYRIFEKDSKFYLEGEVLFASVGSMVEHYHTHVLPSHQSLLLRHPY"}, "B4": {"name": "PH domain of SH3BP2 fused to FLAG (domain or fragment, UniProt Q06649 26-130)", "chain": "GVAKAGYLHKKGGTQLQLLKWPLRFVIIHKRCIYYFKSSTSASPQGAFSLSGYNRVMRAAEETTSNNVFPFKIIHISKKHRTWFFSASSEDERKSWMAFVRREIG"}, "B5": {"name": "Rapsyn-mCherry (protein, UniProt P12672 1-412)", "chain": "MGQDQTKQQIEKGLQLYQSNQTEKALQVWMKVLEKGSDLVGRFRVLGCLVTAHSEMGRYKEMLKFAVVQIDTARGLEDADFLLESYLNLARSNEKLCEFHKTISYCKTCLGLPGTRAGAQLGGQVSLSMGNAFLGLSLFQKALESFEKALRYAHNNDDTMLECRVCCSLGSFYAQVKDYEKALFFPCKAAELVNDYGKGWSLKYRAMSQYHMAVAYRLLGHLGSAMECCEESMKIALQHGDRPLQALCLLCFADIHRSRGDLETAFPRYDSAMSIMTEIGNRLGQVHVLLGVAKCWMARKVQDKALDAIEKAQDLAEEVGNKLSQLKLHCLSESIYRSKGLQRELRTHVVRFHECVEETELYCGLCGESIGERNSRLQALPCSHIFHLRCLQNNGTRSCPNCRRSSMKPGFV"}, "B6": {"name": "EGFP-SH3BP2 (protein, UniProt Q06649 1-559)", "chain": "B1 chain"}, "B7": {"name": "SH3BP2-MYC (protein, UniProt Q06649 1-559)", "chain": "B1 chain"}}, "key": {"[1]": {"target": "T1, SH3BP2-FLAG (full-length) (mouse, UniProt Q06649 1-559)", "T1 sequence": "B1 chain", "experiment": "co-IP"}, "[2]": {"target": "T2, PH domain of SH3BP2 fused to FLAG (mouse) (UniProt Q06649)", "T2 sequence": "B4 chain", "experiment": "co-IP"}, "[3]": {"target": "T3, SH2 domain of SH3BP2 fused to FLAG (mouse) (UniProt Q06649)", "T3 sequence": "B3 chain", "experiment": "co-IP"}, "[4]": {"target": "T4, AChRα cytoplasmic domain peptide P1 (mouse)", "T4 sequence (peptide, N-terminal biotin)": "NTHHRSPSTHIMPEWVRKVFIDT", "experiment": "pull-down"}, "[5]": {"target": "T5, AChRα cytoplasmic domain peptide P2 (mouse)", "T5 sequence (peptide, N-terminal biotin)": "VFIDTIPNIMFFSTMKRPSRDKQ", "experiment": "pull-down"}, "[6]": {"target": "T6, AChRα cytoplasmic domain peptide P3 (mouse)", "T6 sequence (peptide, N-terminal biotin)": "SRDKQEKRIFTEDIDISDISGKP", "experiment": "pull-down"}, "[7]": {"target": "T7, AChRα cytoplasmic domain peptide P4 (mouse)", "T7 sequence (peptide, N-terminal biotin)": "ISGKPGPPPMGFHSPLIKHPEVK", "experiment": "pull-down"}, "[8]": {"target": "T8, AChRα cytoplasmic domain peptide P5 (mouse)", "T8 sequence (peptide, N-terminal biotin)": "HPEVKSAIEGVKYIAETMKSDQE", "experiment": "pull-down"}, "[9]": {"target": "T9, AChRα cytoplasmic domain peptide P6 (mouse)", "T9 sequence (peptide, N-terminal biotin)": "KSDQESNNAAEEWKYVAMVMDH", "experiment": "pull-down"}, "[10]": {"target": "T10, β-dystroglycan cytoplasmic domain fused to GFP (mouse) (UniProt Q62165)", "T10 sequence": "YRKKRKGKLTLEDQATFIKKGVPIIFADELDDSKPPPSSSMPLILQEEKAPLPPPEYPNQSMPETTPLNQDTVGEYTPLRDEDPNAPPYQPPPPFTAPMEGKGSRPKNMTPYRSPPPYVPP", "experiment": "co-IP"}, "[11]": {"target": "T11, αDB1 peptide Y713-P (phosphorylated Y713) (mouse)", "T11 sequence (peptide, phosphotyrosine at Y713 (pY); N-terminal DEST–Biotin–Ahx; C-terminal amide (NH2))": "TQPEDGNYENESVRQ", "experiment": "pull-down"}, "[12]": {"target": "T12, SH3BP2-MYC (mouse) (UniProt Q06649)", "T12 sequence": "B1 chain", "experiment": "co-IP"}, "[13]": {"target": "T13, αDB1 peptide Y730 (unphosphorylated) (mouse)", "T13 sequence (peptide, N-terminal DEST–Biotin–Ahx; C-terminal amide (NH2))": "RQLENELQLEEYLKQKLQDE", "experiment": "pull-down"}, "[14]": {"target": "T14, αDB1 peptide Y730-P (phosphorylated Y730) (mouse)", "T14 sequence (peptide, phosphotyrosine at Y730 (pY); N-terminal DEST–Biotin–Ahx; C-terminal amide (NH2))": "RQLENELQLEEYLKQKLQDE", "experiment": "pull-down"}}, "note": "No constants are given. Whether binding was seen depends on the method and setting. For some of these results: In cells and extracts the contact can be indirect. Some results given as binding are weak or reduced against the parent protein; the word gives no strength. Tags and fused reporters may be left off the sequences shown.", "data": [{"molecule": "cytAChRα-GFP (from UniProt P04756 317-428) (domain or fragment)", "values": [{"measurement": "binding", "setting": "[1]", "value": "binds"}, {"measurement": "binding", "setting": "[2]", "value": "binds"}, {"measurement": "binding", "setting": "[3]", "value": "binds"}]}, {"molecule": "B1", "values": [{"measurement": "binding", "setting": "[4]", "value": "binds"}, {"measurement": "binding", "setting": "[5]", "value": "binds"}, {"measurement": "binding", "setting": "[6]", "value": "binds"}, {"measurement": "binding", "setting": "[7]", "value": "no binding"}, {"measurement": "binding", "setting": "[8]", "value": "no binding"}, {"measurement": "binding", "setting": "[9]", "value": "no binding"}, {"measurement": "binding", "setting": "[10]", "value": "binds"}]}, {"molecule": "B2", "values": [{"measurement": "binding", "setting": "[1]", "value": "binds"}]}, {"molecule": "B3", "values": [{"measurement": "binding", "setting": "[4]", "value": "binds"}, {"measurement": "binding", "setting": "[11]", "value": "binds"}]}, {"molecule": "B4", "values": [{"measurement": "binding", "setting": "[6]", "value": "binds"}, {"measurement": "binding", "setting": "[11]", "value": "no binding"}]}, {"molecule": "B5", "values": [{"measurement": "binding", "setting": "[6]", "value": "binds"}, {"measurement": "binding", "setting": "[7]", "value": "binds"}, {"measurement": "binding", "setting": "[8]", "value": "binds"}, {"measurement": "binding", "setting": "[9]", "value": "binds"}]}, {"molecule": "B6", "values": [{"measurement": "binding", "setting": "[12]", "value": "binds"}]}, {"molecule": "B7", "values": [{"measurement": "binding", "setting": "[13]", "value": "no binding"}, {"measurement": "binding", "setting": "[14]", "value": "no binding"}]}]}
